# According to PubChem BioAssay AID720504 (National Center for Advancing Translational Sciences (NCATS), 2013):
# By UniProt entry, the sequences of proteins in these tests, tags left out.
# UniProt P53350, whole entry, looked up: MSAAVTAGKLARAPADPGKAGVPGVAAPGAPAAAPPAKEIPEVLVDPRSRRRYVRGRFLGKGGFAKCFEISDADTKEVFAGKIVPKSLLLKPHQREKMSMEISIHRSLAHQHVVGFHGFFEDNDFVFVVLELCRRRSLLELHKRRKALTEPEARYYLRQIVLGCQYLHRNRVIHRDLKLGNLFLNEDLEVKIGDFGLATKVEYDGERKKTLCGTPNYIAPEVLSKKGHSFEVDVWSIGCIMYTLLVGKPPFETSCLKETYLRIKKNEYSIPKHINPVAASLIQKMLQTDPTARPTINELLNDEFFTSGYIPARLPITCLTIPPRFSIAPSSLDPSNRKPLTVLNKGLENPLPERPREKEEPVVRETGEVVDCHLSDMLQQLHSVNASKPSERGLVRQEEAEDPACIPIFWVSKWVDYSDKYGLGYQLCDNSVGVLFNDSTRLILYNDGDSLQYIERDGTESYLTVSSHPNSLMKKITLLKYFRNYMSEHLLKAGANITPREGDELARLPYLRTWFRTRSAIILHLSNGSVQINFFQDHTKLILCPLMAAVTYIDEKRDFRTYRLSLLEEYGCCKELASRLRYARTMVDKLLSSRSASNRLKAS
# The campaign covered roughly 360,000 compounds. About 10,000 (2.8%) were called active. Inconclusive means that the source gave no clear call. Such entries were picked first, then a sample of the others. Calls follow the shape of the dose curve; as a rule, active = well fitted inhibition curve with a large enough effect; inconclusive = small, poorly fitted or top-dose-only effect; inactive = flat fitted curve, though single readings scatter. Potencies beside an inconclusive call are fits to weak or partial responses and may not hold up.
# Target: Serine/threonine-protein kinase PLK1 (Homo sapiens) (UniProt P53350)
# Assay: qHTS for Inhibitors of PLK1-PDB (polo-like kinase 1 - polo-box domain): Primary Screen; also: nearly all actives have a fitted effect of over 65% in size; as to max response, negative = inhibition: series mostly up to about 57 µM
# Details: Plk1 PBD binding of FITC phosphopeptide, fluorescence polarization
# From the text: The polo-like kinase 1 (Plk1) is a member of a conserved subfamily of serine / threonine protein kinases that plays a pivotal roles in cell proliferation. It has a C-terminal non-catalytic region called the polo-box domain (PBD) that plays a crucial role in the subcellular localization of the Plk1. […] Furthermore, depletion of the overexpressed Plk1 by RNAi efficiently induces apoptotic cell death in cancer and reduces tumor growth in mouse xenograft models. Thus, targeting Plk1 is an appealing strategy for anti-cancer therapy. Therefore, this project aimed to screen the Molecular Libraries Small Molecule Repository (MLSMR) using a novel approach to find inhibitors that target the Plk1 PBD instead of the conventional N-terminal catalytic domain. This project employed a fluorescence polarization (FP) assay using a FITC-conjugated phospho-9-mer (p-9-mer) peptide and purified human Plk1 PBD protein. The identified small molecule inhibitors of Plk1 PBD can then further be developed into useful tools for biomedical and clinical research that complements or replaces current relevant disease therapy. NIH Chemical Genomics Center [NCGC] NIH Molecular Libraries Probe Centers Network [MLPCN] MLPCN Grant: MH100728 Assay Submitter (PI): Kyung Lee, NCI
# Four microliter of 25 nM FITC-p-9-mer + 60 nM Plk1 PBD in buffer solution (final concentrations 25 nM and 60 nM respectively) or 4 uL of 25 nM FITC-p-9-mer (final concentration 25 nM) in buffer will be dispensed into a 1,536 Greiner medium-binding black solid plate. Small molecules at final concentrations of 18 nM to 57 uM and positive control phospho-9-mer (sequence: Ac-PPLHSpTAI-NH2) at final concentrations 26 nM to 57 uM and phospho-13-mer (sequence: Ac-[…]pTAI-NH2) at final concentrations of 1 nM to 2.3 uM will be pin-transferred (23 nL) to the plate via a Kalypsys pin-tool robotics equipped with a 1,536-pin array. The reaction plate will be centrifuged for 1 min at 1000 rpm and incubated at room temperature for 10 min. The FITC fluorescence signals will be read using the PerkinElmer ViewLux plate reader at 480 / 20 nm excitation and 540 / 20 nm S and P polarization emission wavelengths. Reagent bottles will be kept submerged into 4 °C recirculating chiller bath and all liquid lines will be covered with aluminum foil to minimize degradation. Library plates will be screened starting from the lowest to the highest concentrations to minimize compound carryover. Vehicle only plates, with DMSO being pin-transferred instead of compound solutions, will be included regularly throughout the screen to record any systematic shifts in assay signal.
# % is scaled to controls: 0 for no effect and ±100 for the full control effect; potency is read from the fitted curve at half-maximal effect.
Structure (SMILES),"max response, negative = inhibition",Potency
O=C(/C=C/c1c[nH]c2ccccc12)c1c(O)n(CCc2ccccc2)c(=O)[nH]c1=O,inactive: 77%,
COc1cccc(C2(O)CCN(CC(=O)Nc3nc(C)cs3)CC2)c1,,"inconclusive: 7.52 µM [inhibitor, partial curve]"
Cc1ccc(/C=C2/C(=O)NC(=O)N(CC3CCCO3)C2=O)s1 (stereo unspecified),,active: 5.97 µM
Cc1ccccc1-c1ccc2c(c1)CNCc1cnnn1-2,inactive: -15.2%,
CCOc1cc(/C=C2\C(=O)NC(=O)N(C)C2=O)cc([N+](=O)[O-])c1O,,active: 7.52 µM
O=C(Nc1ccccc1)c1cc([N+](=O)[O-])ccc1N1CCNCC1,inactive: -2.86%,
C=C(C=O)C[C@@H]1C[C@H](O)C2OC3C[C@]4(C)OC5/C=C\CC6OC7C(CC=CCC6OC5CCCC4OC3CC2O1)OC1CC2OC3CC(=O)OC3C[C@@H](C)C[C@@]2(C)OC1C[C@@H]7C (stereo partly specified),inconclusive: -34.1% [inhibitor],
C=CCc1cc(C=C2C(=O)N(C)C(=O)N(C)C2=O)cc(OCC)c1OCc1ccccc1,,active: 7.52 µM
CCCOC(=O)c1ccc(-[n+]2c(-c3ccccc3)cc(-c3ccccc3)cc2-c2ccccc2)cc1,inactive: -5.29%,
CC(=O)O[C@]1(C)C(=O)OC/C2=C/CN(C)CCC(OC(=O)[C@@](O)(C(C)O)C[C@H]1C)C2=O (stereo partly specified),inactive: -5.61%,
CC(C)Oc1ccc(CNC(=O)Oc2ccccc2)cc1,,"inconclusive: 29.9 µM [inhibitor, partial curve]"
O=C(O)c1ccc(Cl)nc1,,active: 18.9 µM
CCC(=O)Nc1cc(C(=O)O)ccc1S(=O)(=O)c1ccc(C)cc1,,"inconclusive: 18.9 µM [inhibitor, partial curve]"
CN1C(=O)/C(=C/c2ccc(Cl)s2)C(=O)NC1=S,,active: 1.5 µM
CCOC(=O)C(O)(c1ccc(NC(=O)Oc2ccccc2)cc1)C(F)(F)F (stereo unspecified),,"inconclusive: 29.9 µM [inhibitor, partial curve]"
O=C(O)c1cccc(N=Nc2c(O)[nH]c(=O)[nH]c2=O)c1,,"inconclusive: 33.6 µM [inhibitor, partial curve]"
COC(=O)C1=C(c2ccccc2)C[C@@H]2CC[C@H]1N2C(=O)NCc1cccc2ccccc12,inactive: -16.4%,
CC(=O)OC1C2(CC3N4C(=O)C5(CO)SSC4(CC31O)C(=O)N5C)OC(C)C(C)(C)C2=O (stereo unspecified),,"inconclusive: 26.7 µM [inhibitor, partial curve]"

Structure (SMILES),"max response, negative = inhibition",Potency
NC(=O)c1cc([N+](=O)[O-])cc([N+](=O)[O-])c1,inactive: -15.9%,
Cc1ccc(N2C(=O)NC(=O)/C(=C\c3ccc(N4CCOCC4)cc3)C2=O)cc1,,active: 5.97 µM
CCCCCCn1c(O)c(C(C)=NC)c(=O)[nH]c1=O,inactive: -6.16%,
CC(=O)O[C@H]1C[C@@H]2OC3C=C(C)CCC3(C)[C@@]1(C)[C@@]21CO1 (stereo partly specified),inactive: -6.57%,
CC(=O)N1CCN(c2ccc([N+](=O)[O-])cc2C=C2C(=O)NC(=O)NC2=O)CC1,,"inconclusive: 29.9 µM [inhibitor, partial curve]"
c1ccc(-c2ccc(C(c3ccccc3)n3ccnc3)cc2)cc1 (stereo unspecified),,"inconclusive: 26.7 µM [inhibitor, partial curve]"
Cc1c(N=Cc2c(O)n(Cc3ccc(F)cc3)c(=O)[nH]c2=O)c(=O)n(-c2ccccc2)n1C,inactive: 3.31%,
COc1ccc(C(=O)CN2CCCCC2)cc1,inactive: -8.52%,
CC(C)CN(CC(C)C)c1ccc(C=C2C(=O)NC(=S)NC2=O)cc1[N+](=O)[O-],,active: 2.67 µM
CCCCCSc1cc(OC)c(CCN(C)C)cc1OC,inactive: -15%,
Cc1cc(/C=C2\C(=O)NC(=O)N(Cc3ccccc3)C2=O)c(C)n1-c1ccc(Cl)c(C(=O)O)c1,,active: 5.97 µM
O=c1[nH]c(=O)n(Cc2ccccc2Cl)c(O)c1/C=C1/C=CC=N1,,"inconclusive: 18.9 µM [inhibitor, partial curve]"
CCCCCn1c(=O)c(C(=O)NCc2ccc(Cl)cc2)c(O)c2ccccc21,inactive: 2.74%,
Cc1cc(/C=C2/C(=O)NC(=O)N(Cc3ccco3)C2=O)c(C)n1-c1ccc(C(=O)O)cc1,,"inconclusive: 29.9 µM [inhibitor, single point]"
O=C(c1ccc2c(c1)N(Cc1ccccc1)CCS2)N1CCC2(CC1)OCCO2,inactive: -9.85%,
COc1ccc(-n2c(O)c(C=NCCCn3ccnc3)c(=O)[nH]c2=O)cc1,,"inconclusive: 16.8 µM [inhibitor, partial curve, poor fit]"
COC(=O)COc1ccc(/C=C2\C(=O)NC(=S)N(c3ccc(C)cc3)C2=O)cc1OC,,active: 8.44 µM
O=C(Nc1ccc(F)cc1)Oc1ccc[nH]c1=O,,"inconclusive: 11.9 µM [inhibitor, partial curve]"

# Random excerpt: 3 compounds from above
Structure (SMILES),"max response, negative = inhibition",Potency
O=C(c1ccc2c(c1)N(Cc1ccccc1)CCS2)N1CCC2(CC1)OCCO2,inactive: -9.85%,
CCCCCCn1c(O)c(C(C)=NC)c(=O)[nH]c1=O,inactive: -6.16%,
CCCCCSc1cc(OC)c(CCN(C)C)cc1OC,inactive: -15%,
